Measurements reported in publication doi:10.1101/2022.04.10.487777.
Results are given in words; binding and its absence hold for the method and conditions named. Binding seen in cells or lysates may run through a third protein. Some results given as binding are weak or reduced against the parent protein; the word gives no strength. Where a sequence is shown, tags or fusion partners need not be part of it.

The chains behind the UniProt entries cited, without tags or fusion partners.
UniProt Q1MSJ5: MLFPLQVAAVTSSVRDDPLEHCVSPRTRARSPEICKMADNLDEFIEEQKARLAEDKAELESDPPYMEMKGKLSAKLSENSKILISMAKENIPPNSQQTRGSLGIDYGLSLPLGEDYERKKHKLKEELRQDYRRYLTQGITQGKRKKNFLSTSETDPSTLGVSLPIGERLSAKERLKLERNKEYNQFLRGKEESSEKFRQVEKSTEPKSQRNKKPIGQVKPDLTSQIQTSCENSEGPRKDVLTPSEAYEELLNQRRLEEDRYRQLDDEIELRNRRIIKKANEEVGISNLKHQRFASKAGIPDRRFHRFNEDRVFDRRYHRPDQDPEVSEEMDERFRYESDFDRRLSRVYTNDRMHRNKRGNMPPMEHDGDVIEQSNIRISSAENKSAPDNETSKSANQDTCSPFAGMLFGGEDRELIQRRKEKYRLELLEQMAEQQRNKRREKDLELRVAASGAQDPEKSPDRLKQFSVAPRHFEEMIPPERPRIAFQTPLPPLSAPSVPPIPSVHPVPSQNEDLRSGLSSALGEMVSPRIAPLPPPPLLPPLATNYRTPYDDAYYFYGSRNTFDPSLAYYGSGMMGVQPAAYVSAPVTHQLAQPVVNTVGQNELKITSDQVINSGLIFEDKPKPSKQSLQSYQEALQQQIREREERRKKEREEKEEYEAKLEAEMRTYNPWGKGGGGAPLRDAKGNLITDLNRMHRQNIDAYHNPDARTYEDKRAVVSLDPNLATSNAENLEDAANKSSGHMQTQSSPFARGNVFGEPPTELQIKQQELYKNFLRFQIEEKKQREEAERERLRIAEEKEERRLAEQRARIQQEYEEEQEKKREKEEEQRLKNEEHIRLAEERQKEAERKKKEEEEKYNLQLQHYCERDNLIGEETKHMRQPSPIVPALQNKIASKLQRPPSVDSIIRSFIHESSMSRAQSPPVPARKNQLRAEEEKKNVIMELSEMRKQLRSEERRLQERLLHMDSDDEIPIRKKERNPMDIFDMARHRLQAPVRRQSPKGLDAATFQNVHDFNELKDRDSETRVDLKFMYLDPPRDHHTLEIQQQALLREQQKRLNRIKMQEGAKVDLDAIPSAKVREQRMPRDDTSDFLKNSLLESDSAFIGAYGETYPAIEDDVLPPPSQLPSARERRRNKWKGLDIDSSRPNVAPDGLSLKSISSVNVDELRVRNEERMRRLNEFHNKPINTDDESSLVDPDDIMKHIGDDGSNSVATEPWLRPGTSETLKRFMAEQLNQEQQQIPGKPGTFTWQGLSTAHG
UniProt Q15154: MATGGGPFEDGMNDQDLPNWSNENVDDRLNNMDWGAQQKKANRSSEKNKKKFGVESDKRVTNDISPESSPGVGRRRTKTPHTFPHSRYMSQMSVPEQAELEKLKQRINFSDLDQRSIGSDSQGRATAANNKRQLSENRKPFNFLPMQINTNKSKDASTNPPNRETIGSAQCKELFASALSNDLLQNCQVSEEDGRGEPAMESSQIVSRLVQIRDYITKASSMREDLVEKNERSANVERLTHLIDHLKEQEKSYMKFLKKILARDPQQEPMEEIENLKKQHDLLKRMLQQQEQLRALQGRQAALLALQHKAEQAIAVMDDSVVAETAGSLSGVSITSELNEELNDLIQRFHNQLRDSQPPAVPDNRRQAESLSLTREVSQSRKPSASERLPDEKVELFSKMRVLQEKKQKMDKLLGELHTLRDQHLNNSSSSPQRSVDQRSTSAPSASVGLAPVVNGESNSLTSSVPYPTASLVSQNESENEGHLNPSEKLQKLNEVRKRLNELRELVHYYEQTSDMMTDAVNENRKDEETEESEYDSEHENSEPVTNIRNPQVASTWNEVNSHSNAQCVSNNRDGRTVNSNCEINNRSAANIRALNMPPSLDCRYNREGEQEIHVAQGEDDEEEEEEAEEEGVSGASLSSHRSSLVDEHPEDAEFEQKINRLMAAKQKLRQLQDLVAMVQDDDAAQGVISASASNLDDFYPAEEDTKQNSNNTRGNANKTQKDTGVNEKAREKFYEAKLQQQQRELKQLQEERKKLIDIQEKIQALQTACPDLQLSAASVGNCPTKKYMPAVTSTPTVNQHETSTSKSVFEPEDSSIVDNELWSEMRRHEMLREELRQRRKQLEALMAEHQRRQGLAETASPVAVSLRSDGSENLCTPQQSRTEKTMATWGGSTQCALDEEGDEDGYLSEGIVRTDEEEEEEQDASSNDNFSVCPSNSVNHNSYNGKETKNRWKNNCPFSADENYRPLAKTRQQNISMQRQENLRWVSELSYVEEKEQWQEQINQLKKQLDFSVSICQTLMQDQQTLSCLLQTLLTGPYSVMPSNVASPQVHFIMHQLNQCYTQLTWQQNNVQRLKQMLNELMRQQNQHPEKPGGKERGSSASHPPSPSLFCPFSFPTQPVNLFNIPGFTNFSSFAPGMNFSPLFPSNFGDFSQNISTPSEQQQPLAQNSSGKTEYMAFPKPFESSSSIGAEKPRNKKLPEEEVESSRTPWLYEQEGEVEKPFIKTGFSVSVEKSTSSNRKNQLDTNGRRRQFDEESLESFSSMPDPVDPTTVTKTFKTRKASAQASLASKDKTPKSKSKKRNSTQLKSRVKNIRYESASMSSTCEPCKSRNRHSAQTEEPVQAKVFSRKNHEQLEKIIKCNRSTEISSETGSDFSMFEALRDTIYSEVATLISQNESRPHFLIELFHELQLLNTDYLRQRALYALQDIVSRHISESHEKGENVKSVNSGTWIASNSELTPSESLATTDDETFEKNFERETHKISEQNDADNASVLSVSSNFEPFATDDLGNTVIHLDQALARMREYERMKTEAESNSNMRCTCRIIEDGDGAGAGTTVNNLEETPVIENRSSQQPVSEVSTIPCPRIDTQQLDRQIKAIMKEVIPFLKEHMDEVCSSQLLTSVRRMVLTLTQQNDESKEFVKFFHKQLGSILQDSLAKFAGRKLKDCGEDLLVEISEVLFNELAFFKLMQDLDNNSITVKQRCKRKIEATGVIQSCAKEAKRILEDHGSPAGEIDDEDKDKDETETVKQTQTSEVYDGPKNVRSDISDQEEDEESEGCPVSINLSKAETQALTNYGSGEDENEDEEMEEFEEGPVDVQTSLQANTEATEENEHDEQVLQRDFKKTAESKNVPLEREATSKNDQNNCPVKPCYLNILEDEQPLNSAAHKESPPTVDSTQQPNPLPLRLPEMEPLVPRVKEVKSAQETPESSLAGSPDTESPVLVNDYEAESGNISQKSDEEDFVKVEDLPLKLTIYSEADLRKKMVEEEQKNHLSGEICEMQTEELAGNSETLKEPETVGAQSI
UniProt O15078: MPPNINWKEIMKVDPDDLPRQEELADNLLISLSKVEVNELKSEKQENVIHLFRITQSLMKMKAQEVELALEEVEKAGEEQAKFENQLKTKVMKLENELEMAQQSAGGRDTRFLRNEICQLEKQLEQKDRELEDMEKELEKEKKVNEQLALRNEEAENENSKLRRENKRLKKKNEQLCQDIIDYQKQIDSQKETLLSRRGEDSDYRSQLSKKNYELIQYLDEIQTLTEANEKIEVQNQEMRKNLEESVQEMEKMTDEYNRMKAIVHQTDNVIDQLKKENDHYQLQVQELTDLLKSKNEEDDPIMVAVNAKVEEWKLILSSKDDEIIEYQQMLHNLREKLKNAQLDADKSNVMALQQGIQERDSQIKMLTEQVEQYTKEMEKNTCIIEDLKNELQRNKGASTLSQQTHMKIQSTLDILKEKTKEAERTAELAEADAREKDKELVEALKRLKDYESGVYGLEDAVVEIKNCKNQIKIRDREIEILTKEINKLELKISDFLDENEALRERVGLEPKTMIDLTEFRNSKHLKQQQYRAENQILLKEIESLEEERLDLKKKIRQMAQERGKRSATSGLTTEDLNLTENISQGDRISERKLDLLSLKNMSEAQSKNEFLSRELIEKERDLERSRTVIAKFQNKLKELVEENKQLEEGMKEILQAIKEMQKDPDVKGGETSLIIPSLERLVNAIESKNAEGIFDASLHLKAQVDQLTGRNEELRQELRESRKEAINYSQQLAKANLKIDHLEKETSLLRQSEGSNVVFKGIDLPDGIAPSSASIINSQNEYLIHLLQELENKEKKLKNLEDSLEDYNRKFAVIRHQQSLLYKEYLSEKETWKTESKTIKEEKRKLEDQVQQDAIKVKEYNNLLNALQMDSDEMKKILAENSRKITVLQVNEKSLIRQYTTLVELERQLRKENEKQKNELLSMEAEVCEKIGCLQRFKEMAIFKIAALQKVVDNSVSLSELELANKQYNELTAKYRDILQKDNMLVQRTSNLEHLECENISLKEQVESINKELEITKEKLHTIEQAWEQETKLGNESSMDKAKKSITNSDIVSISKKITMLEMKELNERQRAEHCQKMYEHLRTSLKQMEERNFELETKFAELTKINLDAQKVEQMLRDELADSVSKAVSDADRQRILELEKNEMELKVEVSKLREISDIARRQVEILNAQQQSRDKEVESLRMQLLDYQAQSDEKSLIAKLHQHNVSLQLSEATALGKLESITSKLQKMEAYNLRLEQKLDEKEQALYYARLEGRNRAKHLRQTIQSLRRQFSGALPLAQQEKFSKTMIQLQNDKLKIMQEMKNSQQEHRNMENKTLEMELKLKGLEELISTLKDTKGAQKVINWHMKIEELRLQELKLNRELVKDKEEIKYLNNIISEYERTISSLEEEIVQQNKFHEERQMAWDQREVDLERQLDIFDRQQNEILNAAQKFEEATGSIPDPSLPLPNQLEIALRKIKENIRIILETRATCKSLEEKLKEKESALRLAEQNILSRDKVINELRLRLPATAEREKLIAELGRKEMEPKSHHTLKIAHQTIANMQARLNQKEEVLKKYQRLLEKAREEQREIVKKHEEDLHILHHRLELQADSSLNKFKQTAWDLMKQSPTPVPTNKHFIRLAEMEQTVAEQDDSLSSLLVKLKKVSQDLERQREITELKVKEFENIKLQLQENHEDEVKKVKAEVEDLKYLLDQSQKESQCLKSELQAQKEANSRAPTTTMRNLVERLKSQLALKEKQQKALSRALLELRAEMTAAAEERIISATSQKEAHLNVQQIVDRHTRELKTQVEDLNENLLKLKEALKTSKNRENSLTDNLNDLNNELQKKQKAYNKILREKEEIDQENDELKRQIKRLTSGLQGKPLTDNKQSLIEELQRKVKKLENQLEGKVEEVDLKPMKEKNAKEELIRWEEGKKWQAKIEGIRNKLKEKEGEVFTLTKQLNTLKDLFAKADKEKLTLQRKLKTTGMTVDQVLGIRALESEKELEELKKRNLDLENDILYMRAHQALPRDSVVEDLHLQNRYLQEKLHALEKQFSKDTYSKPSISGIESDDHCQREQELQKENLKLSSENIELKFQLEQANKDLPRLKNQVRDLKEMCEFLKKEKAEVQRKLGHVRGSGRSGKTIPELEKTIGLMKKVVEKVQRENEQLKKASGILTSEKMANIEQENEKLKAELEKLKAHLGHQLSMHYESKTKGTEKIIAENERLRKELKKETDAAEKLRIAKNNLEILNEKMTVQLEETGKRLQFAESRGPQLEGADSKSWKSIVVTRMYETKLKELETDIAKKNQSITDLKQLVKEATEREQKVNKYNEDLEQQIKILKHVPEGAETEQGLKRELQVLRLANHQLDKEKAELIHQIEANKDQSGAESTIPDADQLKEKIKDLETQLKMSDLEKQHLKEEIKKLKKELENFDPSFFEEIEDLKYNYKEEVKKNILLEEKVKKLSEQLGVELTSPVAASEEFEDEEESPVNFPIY

T1: EGFP-CCDC66 full length (UniProt A2RUB6)
T1 sequence: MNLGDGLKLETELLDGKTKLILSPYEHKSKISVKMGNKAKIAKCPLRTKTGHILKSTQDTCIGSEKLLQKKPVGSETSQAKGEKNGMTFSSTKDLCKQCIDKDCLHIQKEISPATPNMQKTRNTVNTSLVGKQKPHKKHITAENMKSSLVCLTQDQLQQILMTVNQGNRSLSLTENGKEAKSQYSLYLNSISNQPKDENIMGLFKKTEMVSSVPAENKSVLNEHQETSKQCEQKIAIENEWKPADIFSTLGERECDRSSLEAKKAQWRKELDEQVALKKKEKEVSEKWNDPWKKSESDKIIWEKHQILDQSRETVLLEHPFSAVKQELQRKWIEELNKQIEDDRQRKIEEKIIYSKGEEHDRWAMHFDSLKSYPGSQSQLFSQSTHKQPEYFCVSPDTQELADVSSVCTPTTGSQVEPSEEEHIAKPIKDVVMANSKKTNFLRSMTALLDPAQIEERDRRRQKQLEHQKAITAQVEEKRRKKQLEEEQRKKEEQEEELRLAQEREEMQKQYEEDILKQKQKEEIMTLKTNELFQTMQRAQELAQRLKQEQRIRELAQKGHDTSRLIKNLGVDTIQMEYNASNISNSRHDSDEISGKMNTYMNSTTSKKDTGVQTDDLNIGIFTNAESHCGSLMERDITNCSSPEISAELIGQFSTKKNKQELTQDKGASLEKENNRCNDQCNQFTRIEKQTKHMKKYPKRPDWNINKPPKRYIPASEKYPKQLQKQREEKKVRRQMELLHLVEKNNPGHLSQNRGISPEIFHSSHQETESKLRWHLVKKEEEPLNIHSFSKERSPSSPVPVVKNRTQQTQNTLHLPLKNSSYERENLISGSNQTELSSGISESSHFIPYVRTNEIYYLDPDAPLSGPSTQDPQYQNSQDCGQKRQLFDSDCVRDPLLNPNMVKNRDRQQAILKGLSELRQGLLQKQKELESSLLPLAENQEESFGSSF

T2: EGFP-CCDC66 (570-948) (UniProt A2RUB6)
T2 sequence: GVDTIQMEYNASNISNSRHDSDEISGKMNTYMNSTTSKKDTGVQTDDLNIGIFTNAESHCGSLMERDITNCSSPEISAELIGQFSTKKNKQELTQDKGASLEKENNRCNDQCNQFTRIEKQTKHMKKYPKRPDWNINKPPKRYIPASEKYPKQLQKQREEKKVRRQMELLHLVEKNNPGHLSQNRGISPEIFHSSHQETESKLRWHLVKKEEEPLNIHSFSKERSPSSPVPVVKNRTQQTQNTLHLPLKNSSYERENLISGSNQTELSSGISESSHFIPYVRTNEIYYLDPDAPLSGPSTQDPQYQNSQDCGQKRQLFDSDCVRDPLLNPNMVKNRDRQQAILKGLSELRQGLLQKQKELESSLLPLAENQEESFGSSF

T3: EGFP-CCDC66 (1-408) (UniProt A2RUB6)
T3 sequence: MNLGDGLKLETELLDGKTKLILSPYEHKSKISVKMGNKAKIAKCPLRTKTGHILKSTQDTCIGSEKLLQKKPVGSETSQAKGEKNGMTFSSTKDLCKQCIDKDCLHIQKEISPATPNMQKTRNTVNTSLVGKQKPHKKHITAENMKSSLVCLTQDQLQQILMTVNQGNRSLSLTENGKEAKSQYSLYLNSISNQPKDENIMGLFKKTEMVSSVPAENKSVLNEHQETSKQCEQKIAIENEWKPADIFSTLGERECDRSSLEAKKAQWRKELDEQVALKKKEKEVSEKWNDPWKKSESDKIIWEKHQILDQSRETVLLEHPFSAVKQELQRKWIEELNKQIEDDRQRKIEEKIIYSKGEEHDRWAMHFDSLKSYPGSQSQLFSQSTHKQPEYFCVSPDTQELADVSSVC


How the values were obtained:
Experiment in all cases: co-IP
EGFP-CCDC66 full length = molecular target: T1, EGFP-CCDC66 full length
EGFP-CCDC66 (570-948) = molecular target: T2, EGFP-CCDC66 (570-948)
EGFP-CCDC66 (1-408) = molecular target: T3, EGFP-CCDC66 (1-408)

| Molecule | binding (EGFP-CCDC66 full length) | binding (EGFP-CCDC66 (570-948)) | binding (EGFP-CCDC66 (1-408)) |
| --- | --- | --- | --- |
| CSPP1 (from UniProt Q1MSJ5 1-1256) | binds | no binding | no binding |
| PCM1 (from UniProt Q15154 1-2024) | binds | no binding | no binding |
| CEP290 (from UniProt O15078 1-2479) | binds | no binding | no binding |
| CEP104 (protein, UniProt O60308 1-925) MPHKIGFVVVSSSGHEDGFSARELMIHAPTVSGWRSPRFCQFPQEIVLQMVERCRIRKLQLLAHQYMISSKIEFYISESLPEYFAPYQAERFRRLGYVSLCDNEKTGCKARELKSVYVDAVGQFLKLIFHQNHVNKYNIYNQVALVAINIIGDPADFSDESNTASREKLIDHYLGHNSEDPALEGTYARKSDYISPLDDLAFDMYQDPEVAQIIRKLDERKREAVQKERYDYAKKLKQAIADLQKVGERLGRYEVEKRCAVEKEDYDLAKEKKQQMEQYRAEVYEQLELHSLLDAELMRRPFDLPLQPLARSGSPCHQKPMPSLPQLEERGTENQFAEPFLQEKPSSYSLTISPQHSAVDPLLPATDPHPKINAESLPYDERPLPAIRKHYGEAVVEPEMSNADISDARRGGMLGEPEPLTEKALREASSAIDVLGETLVAEAYCKTWSYREDALLALSKKLMEMPVGTPKEDLKNTLRASVFLVRRAIKDIVTSVFQASLKLLKMIITQYIPKHKLSKLETAHCVERTIPVLLTRTGDSSARLRVTAANFIQEMALFKEVKSLQIIPSYLVQPLKANSSVHLAMSQMGLLARLLKDLGTGSSGFTIDNVMKFSVSALEHRVYEVRETAVRIILDMYRQHQASILEYLPPDDSNTRRNILYKTIFEGFAKIDGRATDAEMRARRKAATEEAEKQKKEEIKALQGQLAALKEIQAEVQEKESDAVKPKNQDIQGGKAAPAEALGIPDEHYLDNLCIFCGERSESFTEEGLDLHYWKHCLMLTRCDHCKQVVEISSLTEHLLTECDKKDGFGKCYRCSEAVFKEELPRHIKHKDCNPAKPEKLANRCPLCHENFSPGEEAWKAHLMGPAGCTMNLRKTHILQKAPALQPGKSSAVAASGPLGSKAGSKIPTPKGGLSKSSSRTYAKR | binds | no binding | no binding |
